Source: patent US20140248361A1, “HERBAL EXTRACT COMPOSITION AND A PROCESS THEREOF” (PRASAN SOLUTIONS (INDIA) PVT LTD, priority 2012, published 2014)

Assay: Totox value of sunflower oil on storage
[1] = ambient temperature, day 0, 200 ppm
[2] = ambient temperature, day 15, 200 ppm
[3] = ambient temperature, day 30, 200 ppm
[4] = ambient temperature, day 45, 200 ppm
[5] = ambient temperature, day 60, 200 ppm
[6] = ambient temperature, day 75, 200 ppm
[7] = ambient temperature, day 90, 200 ppm
[8] = ambient temperature, day 105, 200 ppm
[9] = ambient temperature, day 120, 200 ppm
[10] = ambient temperature, day 135, 200 ppm
[11] = ambient temperature, day 150, 200 ppm
[12] = ambient temperature, day 165, 200 ppm
[13] = ambient temperature, day 180, 200 ppm

CC(C)(C)c1cc(O)ccc1O [Sample A, tertiary butyl hydroquinone]
Totox value of sunflower oil (50° C., day 0, 200 ppm): 7.850 | Totox value of sunflower oil (50° C., day 7, 200 ppm): 8.919 | Totox value of sunflower oil (50° C., day 15, 200 ppm): 11.655 | Totox value of sunflower oil (50° C., day 22, 200 ppm): 17.128 | Totox value of sunflower oil (50° C., day 30, 200 ppm): 27.087 | Totox value of sunflower oil (50° C., day 37, 200 ppm): 32.447 | Totox value of sunflower oil (50° C., day 45, 200 ppm): 36.287 | Totox value of sunflower oil [1]: 7.458 | Totox value of sunflower oil [2]: 10.051 | Totox value of sunflower oil [3]: 11.937 | Totox value of sunflower oil [4]: 12.588 | Totox value of sunflower oil [5]: 12.893 | Totox value of sunflower oil [6]: 13.749 | Totox value of sunflower oil [7]: 14.669 | Totox value of sunflower oil [8]: 16.253 | Totox value of sunflower oil [9]: 17.299 | Totox value of sunflower oil [10]: 19.100 | Totox value of sunflower oil [11]: 20.674 | Totox value of sunflower oil [12]: 24.158 | Totox value of sunflower oil [13]: 25.399

COc1ccc(O)c(C(C)(C)C)c1 [Sample B, butylated hydroxyanisole]
Totox value of sunflower oil (50° C., day 0, 200 ppm): 7.850 | Totox value of sunflower oil (50° C., day 7, 200 ppm): 18.784 | Totox value of sunflower oil (50° C., day 15, 200 ppm): 30.034 | Totox value of sunflower oil (50° C., day 22, 200 ppm): 37.639 | Totox value of sunflower oil (50° C., day 30, 200 ppm): 44.365 | Totox value of sunflower oil (50° C., day 37, 200 ppm): 54.210 | Totox value of sunflower oil (50° C., day 45, 200 ppm): 68.642 | Totox value of sunflower oil [1]: 7.458 | Totox value of sunflower oil [2]: 13.438 | Totox value of sunflower oil [3]: 23.889 | Totox value of sunflower oil [4]: 28.077 | Totox value of sunflower oil [5]: 34.976 | Totox value of sunflower oil [6]: 42.114 | Totox value of sunflower oil [7]: 52.191 | Totox value of sunflower oil [8]: 65.149 | Totox value of sunflower oil [9]: 75.207 | Totox value of sunflower oil [10]: 92.085 | Totox value of sunflower oil [11]: 101.75 | Totox value of sunflower oil [12]: 122.23 | Totox value of sunflower oil [13]: 133.27
